Experimental data taken from patent US20100021918A1, “METHOD FOR ASSAYING ACTION OF ANTITUMOR AGENT USING SPLICING DEFECTS AS INDEX” (Eisai R&D Management Co., Ltd., priority 2007, published 2010).
This continues a long series; more values of the same kind are listed elsewhere.

Tested on: peripheral blood mononuclear cells (PBMC)
Experiment: Microarray analysis (3), dose-dependent intron expression in PBMC at 3, 10, 30 nM, Table 5
Format: cell-based, human
Procedure: PBMC was suspended in RPMI1640 medium (containing 10% FBS, penicillin, and streptomycin) to 5×10^6 cells/ml and 1 ml of the suspension was plated per well of a 24-well plate. Immediately, 111 μl of 10 times-concentrated (8E,12E,14E)-7-((4-cycloheptylpiperazin-1-yl)carbonyl)oxy-3,6,16,21-tetrahydroxy-6,10,12,16,20-pentamethyl-18,19-epoxytricosa-8,12,14-trien-11-olide was added to the well (six wells per each concentration tested). The cells were then cultured in an incubator with 5% carbon dioxide gas at 37° C. Three hours later, the supernatant was collected and centrifuged at 1500 rpm for five minutes. TRI reagent (SIGMA) (1 ml) was added to each well of the plate from which the supernatant was removed to harvest the cells, which was added to the centrifuged pellet to dissolve. RNA was purified in accordance with the protocol of TRI reagent. RNA was further purified using RNeasy (QIAGEN) and, in accordance with the protocol, DNaseI was added to the samples during the procedure. Absorbance at 260 nm was measured to quantify an amount of RNA.
Ribosomal RNA was removed from 1 μg of each total RNA of control cells (n=3) and cells with the treatment (n=3) using RiboMinus Human/Mouse Transcriptome Isolation Kit (Invitrogen). Single stranded cDNA synthesis, double stranded cDNA synthesis, cRNA synthesis, second single stranded cDNA synthesis, cDNA fragmentation, and cDNA labeling in order were carried out for total RNA from which ribosomal RNA was removed, using GeneChip Whole Transcript Sense Target Labeling and Control Reagents (Affymetrix) to make a cDNA probe. Subsequently, the cDNA probe was used for hybridization with Human Exon 1.0 ST Array (Affymetrix). The array was washed and stained, and luminescence intensity was measured by a scanner.
The expression level of the probe set and the gene was quantified by using Expression Console Ver. 1.0 (Affymetrix) with Summarization Method and Normalization Method being set to “Median polish as used in RMA” and “None”, respectively. The expression level of the probe was normalized with that of the gene.
Probe sets showing that the normalized change in the level expression of the probe set in the group with the treatment at 30 nM was more than 5 times; the expression level of the probe set and the gene in the group with the treatment at 30 nM was more than 100; and probe set annotation was “extended, full, free”, were picked out. Regression analysis was performed with the probe sets extracted for the control group, the group with the treatment at 3 nM, the group with the treatment at 10 nM, and the group with the treatment at 30 nM to determine a p and q value for the slope of regression formula. A gene containing the probe sets with the q value of less than 5% was determined as a candidate gene with increased expression level of the intron regions (Table 5).
In Table 5, for the gene evaluated, gene name (Gene Name), abbreviated name (Gene Symbol), accession number (Accession), alias name (Synonym), transcription cluster number in Human Exon 1.0 ST Array (Human Exon 1.0 ST Array Transcription Cluster ID), chromosome number (Chromosome), type of strand (Strand), start region (Start), stop region (Stop), and change in expression level per 1 nM (Fold Change/nM) were respectively shown.

With `CCC(O)C(C)C1OC1CC(C)(O)/C=C/C=C(\C)C1OC(=O)CC(O)CCC(C)(O)C(OC(=O)N2CCN(C3CCCCCC3)CC2)/C=C/C1C` (stereo not shown) [E7107, (8E,12E,14E)-7-((4-cycloheptylpiperazin-1-yl)carbonyl)oxy-3,6,16,21-tetrahydroxy-6,10,12,16,20-pentamethyl-18,19-epoxytricosa-8,12,14-trien-11-olide] the “Fold Change/nM” value (introns of gene C1orf152 // PDE4DIP, regression over control, 3, 10, 30 nM) was 1.06 nM⁻¹, the “Fold Change/nM” value (introns of gene C3orf58, regression over control, 3, 10, 30 nM) was 1.04 nM⁻¹ and the “Fold Change/nM” value (introns of gene C6orf166, regression over control, 3, 10, 30 nM) was 1.04 nM⁻¹. The “Fold Change/nM” value (introns of gene C14orf32, regression over control, 3, 10, 30 nM) was 1.06 nM⁻¹, the “Fold Change/nM” value (introns of gene C14orf118, regression over control, 3, 10, 30 nM) was 1.05 nM⁻¹ and the “Fold Change/nM” value (introns of gene C20orf112, regression over control, 3, 10, 30 nM) was 1.04 nM⁻¹. For the same molecule, the “Fold Change/nM” value (introns of gene CALM2, regression over control, 3, 10, 30 nM) was 1.07 nM⁻¹, the “Fold Change/nM” value (introns of gene CANX, regression over control, 3, 10, 30 nM) was 1.04 nM⁻¹ and the “Fold Change/nM” value (introns of gene CASP3, regression over control, 3, 10, 30 nM) was 1.04 nM⁻¹. The “Fold Change/nM” value (introns of gene CCDC47, regression over control, 3, 10, 30 nM) was 1.04 nM⁻¹, the “Fold Change/nM” value (introns of gene CCDC100, regression over control, 3, 10, 30 nM) was 1.04 nM⁻¹ and the “Fold Change/nM” value (introns of gene CCDC131, regression over control, 3, 10, 30 nM) was 1.07 nM⁻¹. For the same molecule, the “Fold Change/nM” value (introns of gene CCL20, regression over control, 3, 10, 30 nM) was 1.06 nM⁻¹, the “Fold Change/nM” value (introns of gene CCNL2 // AURKAIP1, regression over control, 3, 10, 30 nM) was 1.05 nM⁻¹ and the “Fold Change/nM” value (introns of gene CCT4, regression over control, 3, 10, 30 nM) was 1.06 nM⁻¹. The “Fold Change/nM” value (introns of gene CD6, regression over control, 3, 10, 30 nM) was 1.04 nM⁻¹, the “Fold Change/nM” value (introns of gene CD14, regression over control, 3, 10, 30 nM) was 1.04 nM⁻¹ and the “Fold Change/nM” value (introns of gene CDC40, regression over control, 3, 10, 30 nM) was 1.04 nM⁻¹. For the same molecule, the “Fold Change/nM” value (introns of gene CENPC1, regression over control, 3, 10, 30 nM) was 1.06 nM⁻¹, the “Fold Change/nM” value (introns of gene CENTD1, regression over control, 3, 10, 30 nM) was 1.05 nM⁻¹ and the “Fold Change/nM” value (introns of gene CENTD2, regression over control, 3, 10, 30 nM) was 1.04 nM⁻¹. For the same molecule, the “Fold Change/nM” value (introns of gene CERK, regression over control, 3, 10, 30 nM) was 1.07 nM⁻¹, the “Fold Change/nM” value (introns of gene CGI-09, regression over control, 3, 10, 30 nM) was 1.04 nM⁻¹ and the “Fold Change/nM” value (introns of gene CHD4, regression over control, 3, 10, 30 nM) was 1.04 nM⁻¹. For the same molecule, the “Fold Change/nM” value (introns of gene CLASP1, regression over control, 3, 10, 30 nM) was 1.04 nM⁻¹, the “Fold Change/nM” value (introns of gene CLIC4 // ADD3, regression over control, 3, 10, 30 nM) was 1.07 nM⁻¹ and the “Fold Change/nM” value (introns of gene CLINT1, regression over control, 3, 10, 30 nM) was 1.06 nM⁻¹. For the same molecule, the “Fold Change/nM” value (introns of gene CLK1, regression over control, 3, 10, 30 nM) was 1.04 nM⁻¹, the “Fold Change/nM” value (introns of gene CLK3, regression over control, 3, 10, 30 nM) was 1.04 nM⁻¹ and the “Fold Change/nM” value (introns of gene CMIP, regression over control, 3, 10, 30 nM) was 1.04 nM⁻¹. The “Fold Change/nM” value (introns of gene CNP, regression over control, 3, 10, 30 nM) was 1.04 nM⁻¹, the “Fold Change/nM” value (introns of gene COPB2, regression over control, 3, 10, 30 nM) was 1.05 nM⁻¹ and the “Fold Change/nM” value (introns of gene COPS2, regression over control, 3, 10, 30 nM) was 1.07 nM⁻¹. The “Fold Change/nM” value (introns of gene CRSP2, regression over control, 3, 10, 30 nM) was 1.06 nM⁻¹, the “Fold Change/nM” value (introns of gene CSK, regression over control, 3, 10, 30 nM) was 1.04 nM⁻¹ and the “Fold Change/nM” value (introns of gene CSNK2A1 // CSNK2A1P, regression over control, 3, 10, 30 nM) was 1.04 nM⁻¹. For the same molecule, the “Fold Change/nM” value (introns of gene DDX3X, regression over control, 3, 10, 30 nM) was 1.06 nM⁻¹, the “Fold Change/nM” value (introns of gene DDX47 // APOLD1, regression over control, 3, 10, 30 nM) was 1.04 nM⁻¹ and the “Fold Change/nM” value (introns of gene DENND3, regression over control, 3, 10, 30 nM) was 1.04 nM⁻¹. For the same molecule, the “Fold Change/nM” value (introns of gene DMXL2, regression over control, 3, 10, 30 nM) was 1.06 nM⁻¹, the “Fold Change/nM” value (introns of gene DNAJC1, regression over control, 3, 10, 30 nM) was 1.04 nM⁻¹ and the “Fold Change/nM” value (introns of gene DNAJC3, regression over control, 3, 10, 30 nM) was 1.07 nM⁻¹. The “Fold Change/nM” value (introns of gene ECE1 // APBB2, regression over control, 3, 10, 30 nM) was 1.06 nM⁻¹, the “Fold Change/nM” value (introns of gene EHD4, regression over control, 3, 10, 30 nM) was 1.08 nM⁻¹ and the “Fold Change/nM” value (introns of gene EIF3S7, regression over control, 3, 10, 30 nM) was 1.04 nM⁻¹. For the same molecule, the “Fold Change/nM” value (introns of gene EIF4A2, regression over control, 3, 10, 30 nM) was 1.04 nM⁻¹, the “Fold Change/nM” value (introns of gene ERCC1, regression over control, 3, 10, 30 nM) was 1.06 nM⁻¹ and the “Fold Change/nM” value (introns of gene EREG, regression over control, 3, 10, 30 nM) was 1.08 nM⁻¹. For the same molecule, the “Fold Change/nM” value (introns of gene ETS2, regression over control, 3, 10, 30 nM) was 1.06 nM⁻¹, the “Fold Change/nM” value (introns of gene EWSR1, regression over control, 3, 10, 30 nM) was 1.04 nM⁻¹ and the “Fold Change/nM” value (introns of gene FAM44A, regression over control, 3, 10, 30 nM) was 1.04 nM⁻¹. For the same molecule, the “Fold Change/nM” value (introns of gene FAM48A // FAM48B2, regression over control, 3, 10, 30 nM) was 1.04 nM⁻¹, the “Fold Change/nM” value (introns of gene FAM89B, regression over control, 3, 10, 30 nM) was 1.04 nM⁻¹ and the “Fold Change/nM” value (introns of gene FAS, regression over control, 3, 10, 30 nM) was 1.06 nM⁻¹. The “Fold Change/nM” value (introns of gene FAU, regression over control, 3, 10, 30 nM) was 1.05 nM⁻¹.
